{"sequences": {"note": "The chains behind the UniProt entries cited, without tags or fusion partners.", "UniProt Q14145": "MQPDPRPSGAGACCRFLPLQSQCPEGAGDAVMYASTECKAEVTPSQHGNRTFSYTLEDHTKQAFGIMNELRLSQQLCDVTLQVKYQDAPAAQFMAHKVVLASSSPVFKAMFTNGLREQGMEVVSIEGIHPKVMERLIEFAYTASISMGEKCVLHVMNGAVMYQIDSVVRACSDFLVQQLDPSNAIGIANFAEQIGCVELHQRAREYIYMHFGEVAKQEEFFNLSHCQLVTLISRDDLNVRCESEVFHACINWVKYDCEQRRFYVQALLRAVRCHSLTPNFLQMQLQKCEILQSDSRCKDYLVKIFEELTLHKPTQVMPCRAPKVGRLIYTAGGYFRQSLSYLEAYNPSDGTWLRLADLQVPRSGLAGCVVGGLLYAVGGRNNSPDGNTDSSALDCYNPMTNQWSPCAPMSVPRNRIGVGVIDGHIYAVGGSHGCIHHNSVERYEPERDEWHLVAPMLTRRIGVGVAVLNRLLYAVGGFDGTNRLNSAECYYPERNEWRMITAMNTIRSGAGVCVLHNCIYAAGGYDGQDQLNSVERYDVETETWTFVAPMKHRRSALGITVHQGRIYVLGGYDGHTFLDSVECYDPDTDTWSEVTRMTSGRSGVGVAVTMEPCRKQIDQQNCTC", "UniProt O14744": "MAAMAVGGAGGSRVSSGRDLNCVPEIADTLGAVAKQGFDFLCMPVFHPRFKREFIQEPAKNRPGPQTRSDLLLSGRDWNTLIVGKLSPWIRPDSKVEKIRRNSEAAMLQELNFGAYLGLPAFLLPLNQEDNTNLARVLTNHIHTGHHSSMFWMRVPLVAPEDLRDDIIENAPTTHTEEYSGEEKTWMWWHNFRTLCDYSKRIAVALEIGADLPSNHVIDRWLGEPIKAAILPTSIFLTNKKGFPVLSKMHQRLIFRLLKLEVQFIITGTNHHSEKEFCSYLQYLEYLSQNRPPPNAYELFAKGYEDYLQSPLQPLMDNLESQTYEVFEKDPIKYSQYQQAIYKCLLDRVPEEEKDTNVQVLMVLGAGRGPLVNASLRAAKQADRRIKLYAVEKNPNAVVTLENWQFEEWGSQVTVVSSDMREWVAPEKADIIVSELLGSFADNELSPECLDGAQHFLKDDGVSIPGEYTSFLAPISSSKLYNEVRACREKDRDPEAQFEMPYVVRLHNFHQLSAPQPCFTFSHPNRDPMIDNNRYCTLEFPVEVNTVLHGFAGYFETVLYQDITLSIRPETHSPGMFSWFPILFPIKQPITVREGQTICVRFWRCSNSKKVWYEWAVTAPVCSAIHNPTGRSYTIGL"}, "source": "paper PMC11910213", "molecular_target": "Kelch-like ECH-associated protein 1 (KEAP1), FLAG-tagged (UniProt Q14145)", "assay": "co-IP; FLAG-KEAP1 overexpressed in HEK 293 cells, 1 uM MG132 added after 24 hours, lysed at 48 hours in co-IP buffer (50 mM Tris pH 8.0, 0.5% NP-40, 200 mM NaCl, 0.1 mM EDTA, 10% glycerol); precipitated with anti-FLAG antibody and protein A/G magnetic beads at 4°C; Western blot", "note": "Results are given in words; binding and its absence hold for the method and conditions named. Binding seen in cells or lysates may run through a third protein. Some entries that bind do so weakly or less than the wild type."}
{"substance": "protein arginine methyltransferase 5 (PRMT5) (from UniProt O14744 1-637)", "values": [{"measurement": "binding", "result": "binds"}]}
